Laboratory results: US6794136
The exact form of at least one protein or probe is not confirmed. For some assays here: Tags and fusion partners may be left off the protein sequences shown.

Amino acid sequences for entries named in this document (tags omitted). Residues count along the entry.
UniProt P08047, 620-713: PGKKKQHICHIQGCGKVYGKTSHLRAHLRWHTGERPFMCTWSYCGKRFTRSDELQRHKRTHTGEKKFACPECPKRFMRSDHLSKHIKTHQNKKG

Key:
[1] = test system: T1, GL-8.3.1 (SBS design) (artificial); assay: binding assay; conditions: exemplary ZFP database entry; method not given
T1 sequence: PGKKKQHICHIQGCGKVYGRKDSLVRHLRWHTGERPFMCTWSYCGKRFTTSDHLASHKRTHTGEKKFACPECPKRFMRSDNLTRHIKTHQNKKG

SP1 = SP1 (UniProt P08047); assay: binding assay; conditions: exemplary ZFP database entry; method not given

| Sequence | Kd [1] | Kd (SP1) |
| --- | --- | --- |
| GAGTGTGTG (double strand) [GL-8.3.1 target site] | 32 nM | – |
| GGGGCGGGG (double strand) [SP1 target site] | – | 25 nM |
